{
  "source": "patent US5041436A",
  "about": "“1-arylsulphonyl-2-piperidinone derivatives, process and intermediates for the preparation thereof, their application as antispasmodics and compositions containing them” (Roussel Uclaf, priority 1989, dated 1991)",
  "tested_on": "cholinomimetic effects induced by carbachol",
  "assay": "In vivo anticholinergic action: inhibition of cholinomimetic effects induced by carbachol in mice",
  "parameters": "species or system CD1 male mice",
  "conditions": "control mice, 1 mg/kg s.c.",
  "protocol": "The anticholinergic activity of the compounds was determined by assessing the capacity to inhibit the cholinomimetic effects induced by carbachol. Atropine sulphate was employed as a reference product.\nCD1 male mice weighing 25 to 30 g were used. They were distributed in groups of 6 animals and treated intraperitoneally with scalar doses of the products or 0.25% Methocel for the controls. 12 animals were used for each dose. 30 minutes after administration of the compounds, the mice were injected subcutaneously with 1 mg/kg of carbachol dissolved in physiological saline.\nEach animal was examined 30 minutes after the injection of carbachol to assess the presence of diarrhoea, salivation and eye watering; in addition, the body temperature was measured by means of a thermocouple inserted 1.5 cm into the rectum.\nFor each compound, we have determined and recorded in the following table the dose capable of inhibiting the appearance of the carbachol-induced cholinometric symptoms in 50% of the animals, and of increasing by 1° C. the hypothermic effect induced by the cholinergic agent.",
  "data": [
    {"compound": "C[N+](C)(C)CCOC(N)=O", "note": "[Carbachol, carbachol, reference compound]", "values": [
      {"measurement": "decrease in rectal temperature induced by carbachol", "value": "approximately 2.5 °C"},
      {"measurement": "diarrhoea induced by carbachol", "value": "all the control mice"},
      {"measurement": "eye watering induced by carbachol", "value": "all the control mice"},
      {"measurement": "salivation induced by carbachol", "value": "all the control mice"}
    ]}
  ]
}
